Experimental data taken from article PMC4381072, “Short antisense-locked nucleic acids (all-LNAs) correct alternative splicing abnormalities in myotonic dystrophy”.
For at least one entry, the source does not settle the construct or the ends of the probe. No signal at the amounts used counts as a negative. At least one verdict was read from the data and is not stated in words by the source. Protein sequences can lack the tags named with them.

Target: T1, MBNL1 (isoform encoded by exons 1-4) (UniProt Q9NR56)
T1 sequence (looked up, limits assumed): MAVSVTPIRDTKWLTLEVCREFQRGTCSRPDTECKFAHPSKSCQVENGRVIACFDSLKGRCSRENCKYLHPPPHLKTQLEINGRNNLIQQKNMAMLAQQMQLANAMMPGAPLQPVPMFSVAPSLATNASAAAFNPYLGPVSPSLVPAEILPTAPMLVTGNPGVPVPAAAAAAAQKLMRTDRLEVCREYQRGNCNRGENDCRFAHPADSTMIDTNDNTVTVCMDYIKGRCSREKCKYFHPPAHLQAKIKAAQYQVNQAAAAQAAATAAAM
Test: filter binding
Conditions: 0-500 nM MBNL1, 0.2 nM oligomer, named in Methods, Results say tested control oligomers did not bind; all 2'-O-methyl, phosphodiester; FBA: FBB (50 mM Tris-HCl pH 8.0, 1 mM MgCl2, 0.05% Tween 20) with 250 mM NaCl and 15 mM KCl, 37 C, 30 min, 30 ul; recombinant protein; protein details: N-terminal GST, C-terminal His6; label: radiolabeled; synthetic backbone

CAGCAGCAGCAGCAGCAGCAG [PO-2'OMe-CAG-21]: no binding.
